Laboratory results taken from publication PMC11294482.
No constants are given. Whether binding was seen depends on the method and setting. In cells and extracts the contact can be indirect. Some binding calls cover weakened binding; strength is not graded here.

The chains behind the UniProt entries cited, without tags or fusion partners.
UniProt P08670: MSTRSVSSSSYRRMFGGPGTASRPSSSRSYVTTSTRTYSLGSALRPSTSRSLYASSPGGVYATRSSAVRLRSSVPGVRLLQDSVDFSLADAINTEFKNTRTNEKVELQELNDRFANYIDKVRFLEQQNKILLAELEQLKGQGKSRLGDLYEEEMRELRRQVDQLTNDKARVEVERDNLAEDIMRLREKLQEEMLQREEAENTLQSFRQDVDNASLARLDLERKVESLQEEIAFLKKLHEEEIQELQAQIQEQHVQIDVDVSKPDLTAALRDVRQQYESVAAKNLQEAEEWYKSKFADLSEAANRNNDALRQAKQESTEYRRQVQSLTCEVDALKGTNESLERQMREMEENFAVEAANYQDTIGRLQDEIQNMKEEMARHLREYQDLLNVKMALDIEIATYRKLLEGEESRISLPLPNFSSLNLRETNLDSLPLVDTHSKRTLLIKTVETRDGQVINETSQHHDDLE

T1: XRCC2 (human (endogenous in A549)) (UniProt O43543)
T1 sequence: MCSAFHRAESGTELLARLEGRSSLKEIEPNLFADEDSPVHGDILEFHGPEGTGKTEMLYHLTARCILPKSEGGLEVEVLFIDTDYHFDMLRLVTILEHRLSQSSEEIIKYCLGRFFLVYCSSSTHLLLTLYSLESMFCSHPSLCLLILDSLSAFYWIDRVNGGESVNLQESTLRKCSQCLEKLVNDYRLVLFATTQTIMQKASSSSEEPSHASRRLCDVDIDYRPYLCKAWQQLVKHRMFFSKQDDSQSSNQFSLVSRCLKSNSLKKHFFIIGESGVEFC

B1: XRCC2 (protein, UniProt O43543 1-280)
chain: T1 sequence

Legend:
[1] = target: T1, XRCC2 (human (endogenous in A549)); assay: co-IP; A549 cell lysate, antibody to XRCC2 or to vimentin (IgG as control) overnight at 4 °C, magnetic beads, Western blot
[2] = target: vimentin (human (endogenous in A549)) (UniProt P08670); assay: as above

Row | binding [1] | binding [2] | Molecule
1 | binds |  | vimentin (from UniProt P08670 1-466)
2 |  | binds | B1
